Results on one molecule are retold here after ChEMBL document CHEMBL1155233, “Structure mechanism insights and the role of nitric oxide donation guide the development of oxadiazole-2-oxides as therapeutic agents against schistosomiasis” (J Med Chem, 2009).

Each structure is given as a SMILES string. Converted amounts (≈) assume the structure as drawn.

Series [1] is described as follows: Metabolic stability in human liver microsomes assessed as compound remaining over 60 mins in presence of NADPH. Type of series: ADME, Microsome. To be noted: read-out: Stability. Background: Liver microsomes are vesicles of endoplasmic reticulum, rich in cytochrome P450 enzymes.
The nature of series [2]: Solubility by quantitative nitrogen detection based method.
Series [3] can be described thus: Distribution coefficient, log D of the compound. To be noted: octanol/water.

Consider `N#Cc1c(-c2csc(-c3no[n+]([O-])c3C#N)c2)no[n+]1[O-]`, for which the remaining at 1 h in series [1] turned out to be 12%. Also, in series [2], the concentration in solution (solubility) came to 122 µM (≈ 36.9 µg/mL). In series [3], this molecule came in with a logD of 2.92.

What is called solubility is the concentration that dissolves in the medium under given conditions. A word on the logD: it is lipophilicity at a set pH, counting ionised and neutral species. A higher logD goes with higher lipophilicity.
